Source: PubChem BioAssay AID602196 (INSERM, 2012)
Test: 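Modifiers of cisplatin sensitivity in A549 cells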. System: human A549 lung cancer cells. Knock-down reagent: siRNA pair against human genes. Timing: 48 h transfection before cisplatin; time from cisplatin to read-out not stated. Challenge: cisplatin at a dose killing half of control-siRNA cells; exact dose and duration not given. Measurement: 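Cisplatin cell death as a shift from the 50% death seen with control siRNA; siRNAs toxic or growth-blocking alone scored 0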. Reading the numbers: two-siRNA summed score (-2 to +2): higher = both siRNAs protect from cisplatin killing; -2 means both sensitise; mean protection from cisplatin (shift in death) and protection from cisplatin (shift in death), siRNA C: higher = protection from cisplatin killing. Rule for the call: 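siRNAs harmful alone (LDH or WST-1) get 0; others get +1 for less and -1 for more cisplatin killing; genes are active when the two siRNAs give the same sign, summing to ±2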. Calls: active = both siRNAs shift cisplatin killing the same way; inactive = no consistent shift, or siRNA harmful alone.
The deposit covers about 23,000 reagents; below is a part drawn at random. 455 of all reagents (2%) count as active. 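Active includes both protection and sensitisation; some change values fall well beyond the stated -50 to +50 range.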 Entries without a mark were called inactive. Reagents against one gene are numbered here. Not all columns of the deposit are shown. Not given: the amount of reagent.

no.	target	reagent	two-siRNA summed score (-2 to +2)	mean protection from cisplatin (shift in death) (%)	protection from cisplatin (shift in death), siRNA C (%)
1	BLOC1S2	1	0	20.4	19.5
2	PTP4A2	1	0	-2.8	4.7
3	LOC440234	1	0	-0.7	-17.8
4	FTSJ1	1	0	-3.6	-3.3
5	DKFZp434O0320	1	0	3	5.3
6	TRIM51	1	0	8.1	9.8
7	TIMD4	1	-1	2.3	-13
8	MRPL37	1	0	9.9	14.5
9	LOC284064	1	0	2	9.6
10	ZFYVE1	1	0	12.9	7.5
11	LOC392583	1	0	-3.4	-7
12	UBE3D	1	0	9.8	5.6
13	IRF1	1	1	16.7	29.7
14	ADGRE4P	1	-2 (active)	-12.8	-17.1
15	LOC390342	1	2 (active)	17.1	10.9
16	AQP11	1	1	0.4	-9
17	C1orf122	1	0	3	5.8
18	PPM1D	1	1	15.4	15.1
19	LRRC37B	1	0	0	1.6
20	ACSL1	1	0	-7.3	-17.1
21	TIPARP	1	0	4.8	-3.5
22	RGS16	1	0	-4.7	-3.7
23	ZNF556	1	0	0.6	3.9
24	AGO2	1	0	7.6	14.3
25	INMT	1	1	20.3	24.9
26	BAGE	1	0	0.3	3
27	ZNF141	1	0	1	-3.9
28	TRIM69	1	0	5.9	12.3
29	LOC389331	1	1	7.8	4.6
30	LOC341315	1	0	12.5	-1.7
31	H4C4	1	0	0.2	-8.4
32	CD1C	1	0	6.4	7.8
33	WASL	1	0	-16.2	-2.9
34	MRPL52	1	1	14.9	14.3
35	LOC442225	1	0	6.4	4.4
36	TMEM147	1	-1	-13.2	-5.6
37	LINC00705	1	0	4.2	9
38	ATCAY	1	0	7.2	15.7
39	POLR3H	1	0	8.4	11.4
40	POLR3H	2	0	8.4	15.4
